Consider 1 molecule from article PMC8500273.

Chains of the proteins cited; added tags and fusions are not shown.
UniProt P31146: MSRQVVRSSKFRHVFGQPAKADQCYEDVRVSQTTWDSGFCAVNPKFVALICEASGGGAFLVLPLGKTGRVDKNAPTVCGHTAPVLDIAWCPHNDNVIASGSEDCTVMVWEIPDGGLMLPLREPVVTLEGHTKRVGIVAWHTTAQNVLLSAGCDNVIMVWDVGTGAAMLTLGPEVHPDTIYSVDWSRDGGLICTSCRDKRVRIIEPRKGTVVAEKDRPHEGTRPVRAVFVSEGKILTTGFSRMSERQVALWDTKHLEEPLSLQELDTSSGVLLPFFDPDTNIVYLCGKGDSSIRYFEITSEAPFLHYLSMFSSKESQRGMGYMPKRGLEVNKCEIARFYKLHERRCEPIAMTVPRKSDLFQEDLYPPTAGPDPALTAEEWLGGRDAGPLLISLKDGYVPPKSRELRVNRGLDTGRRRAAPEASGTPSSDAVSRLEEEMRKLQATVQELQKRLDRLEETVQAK

No constants are given. Whether binding was seen depends on the method and setting. In cells and extracts the contact can be indirect. These calls come from enrichment with a bait or labelling near it, and not all partners need be listed.

The target of the assay is Coro1a, Flag-tagged, ectopically expressed (bait of the mass spectrometry) (human) (UniProt P31146). The assay can be described thus: affinity purification with mass spectrometry; Coro1a ectopically expressed in HEK293 cells, pulled down from cell lysates by anti-Flag beads, SDS-PAGE, gel pieces analysed on a Q Exactive.

B1: TRIM4 (endogenous, HEK293) (enzyme, UniProt Q9C037 1-500)
chain: MEAEDIQEELTCPICLDYFQDPVSIECGHNFCRGCLHRNWAPGGGPFPCPECRHPSAPAALRPNWALARLTEKTQRRRLGPVPPGLCGRHWEPLRLFCEDDQRPVCLVCRESQEHQTHAMAPIDEAFESYRTGNFDIHVDEWKRRLIRLLLYHFKQEEKLLKSQRNLVAKMKKVMHLQDVEVKNATQWKDKIKSQRMRISTEFSKLHNFLVEEEDLFLQRLNKEEEETKKKLNENTLKLNQTIASLKKLILEVGEKSQAPTLELLQNPKEVLTRSEIQDVNYSLEAVKVKTVCQIPLMKEMLKRFQVAVNLAEDTAHPKLVFSQEGRYVKNTASASSWPVFSSAWNYFAGWRNPQKTAFVERFQHLPCVLGKNVFTSGKHYWEVESRDSLEVAVGVCREDVMGITDRSKMSPDVGIWAIYWSAAGYWPLIGFPGTPTQQEPALHRVGVYLDRGTGNVSFYSAVDGVHLHTFSCSSVSRLRPFFWLSPLASLVIPPVTDRK
As to B1, the binding result is “binds”.
